Source: patent US11285156B2, “Substituted piperazines as KRAS G12C inhibitors” (Amgen Inc., priority 2018, dated 2022)
Structures were worked out from names or drawings and are uncertain.

Amino acid sequences for entries named in this document (tags omitted). Chains listed by the source or under a name are the forms on record and can include a tag or linker. Residues count along the entry.
UniProt P01116, 1-164 with tags or gaps C118A/G12C limits assumed: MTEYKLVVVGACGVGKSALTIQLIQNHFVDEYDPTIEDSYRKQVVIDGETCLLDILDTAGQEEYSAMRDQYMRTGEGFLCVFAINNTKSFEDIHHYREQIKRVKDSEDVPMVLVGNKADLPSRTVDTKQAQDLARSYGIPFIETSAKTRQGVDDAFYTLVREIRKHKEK

What was measured:
[1] = molecular target: GDP-bound KRAS protein (aa 1-169), containing both G12C and C118A amino acid substitutions (Homo sapiens (Human), UniProt P01116, C118A/G12C); assay: Coupled nucleotide exchange assay (SOS-mediated nucleotide exchange, AlphaScreen); assay type: biochemical; conditions: read-out: Coupled exchange IC50 (5 min; μM); 5 min compound pre-incubation
[2] = tested on: Phosphorylation of ERK1/2 in MIA PaCa-2 cells; assay: Phospho-ERK1/2 MSD assay in MIA PaCa-2 cells; assay type: cell-based; conditions: read-out: p-ERK IC50 (2 h, MiaPaCa-2; μM), 2 h compound treatment, EGF stimulated
[3] = tested on: Phosphorylation of ERK1/2 in A549 cells; assay: Phospho-ERK1/2 MSD assay in A549 cells; assay type: cell-based; conditions: read-out: p-ERK IC50 (2 h, A549; μM), 2 h compound treatment, EGF stimulated
Protocol: Phospho-ERK1/2 MSD Assay:
MIA PaCa-2 (ATCC® CRL-1420™) and A549 (ATCC® CCL-185™) cells were cultured in RPMI 1640 Medium (ThermoFisher Scientific 11875093) containing 10% fetal bovine serum (ThermoFisher Scientific 16000044) and 1× penicillin-streptomycin-glutamine (ThermoFisher Scientific 10378016). Sixteen hours prior to compound treatment, MIA PaCa-2 or A549 cells were seeded in 96-well cell culture plates at a density of 25,000 cells/well and incubated at 37° C., 5% CO2. A compound dose-response titration was diluted in growth media, added to appropriate wells of a cell culture plate, and then incubated at 37° C., 5% CO2 for 2 or 4 hours (see Table 15). Following compound treatment, cells were stimulated with 10 ng/mL EGF (Roche 11376454001) for 10 min, washed with ice-cold Dulbecco's phosphate-buffered saline, no Ca2+ or Mg2+ (ThermoFisher Scientific 14190144), and then lysed in RIPA buffer (50 mM Tris-HCl pH 7.5, 1% Igepal, 0.5% sodium deoxycholate, 150 mM NaCl. and 0.5% sodium dodecyl sulfate) containing protease inhibitors (Roche 4693132001) and phosphatase inhibitors (Roche 4906837001). […] Assay plates were read on a Meso Scale Discovery Sector Imager 6000, and data were analyzed using a 4-parameter logistic model to calculate IC50 values.

IC50 [1]: 0.067 µM
IC50 [2]: 0.054 µM
IC50 [3]: > 7.5 µM
Compound: C#CCNc1cccc(F)c1-c1nc2c(cc1F)c(N1C[C@@H](C)N(C(=O)C=C)C[C@@H]1C)nc(=O)n2-c1c(C)ccnc1C(C)C
